These results are taken from patent US20100178296A1.

The chains behind the UniProt entries cited, without tags or fusion partners. Residues count along the entry.
UniProt O54885, residues 22-114: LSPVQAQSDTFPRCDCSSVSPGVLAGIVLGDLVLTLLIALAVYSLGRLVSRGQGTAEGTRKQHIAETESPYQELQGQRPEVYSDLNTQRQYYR

This assay deals with T1, cynomolgus CD200RLa expressed on mouse mast cells or on Ba/F3 cells with human DAP12 (cynomolgus monkey).
T1 sequence: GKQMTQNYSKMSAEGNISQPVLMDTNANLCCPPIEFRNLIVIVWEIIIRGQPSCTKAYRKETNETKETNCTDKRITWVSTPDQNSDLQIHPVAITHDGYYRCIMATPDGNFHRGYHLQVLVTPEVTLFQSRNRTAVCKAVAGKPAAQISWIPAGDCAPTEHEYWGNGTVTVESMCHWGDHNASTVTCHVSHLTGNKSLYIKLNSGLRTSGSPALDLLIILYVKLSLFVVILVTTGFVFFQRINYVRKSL
The experiment in a line: co-immunoprecipitation with cynomolgus CD200RLa by DX182 from mouse mast cell lysate (1% digitonin), Western blot with rabbit anti-mouse DAP12. For orientation: Immunoblotting shows a protein as a band on a membrane.

These are yes or no findings as the source states them, for the method shown. In cells and extracts the contact can be indirect. Some binding calls cover weakened binding; strength is not graded here.

“mouse DAP12, endogenous in mouse mast cells (from UniProt O54885 22-114)”: the binding result was “binds”.
